In the supplement of paper PMC10849652:
The list shows a part of the results.

Chains of the proteins cited; added tags and fusions are not shown. Lines headed by an entry give the natural chain unless they say otherwise; changes in a name come on top.
UniProt Q5VVQ6: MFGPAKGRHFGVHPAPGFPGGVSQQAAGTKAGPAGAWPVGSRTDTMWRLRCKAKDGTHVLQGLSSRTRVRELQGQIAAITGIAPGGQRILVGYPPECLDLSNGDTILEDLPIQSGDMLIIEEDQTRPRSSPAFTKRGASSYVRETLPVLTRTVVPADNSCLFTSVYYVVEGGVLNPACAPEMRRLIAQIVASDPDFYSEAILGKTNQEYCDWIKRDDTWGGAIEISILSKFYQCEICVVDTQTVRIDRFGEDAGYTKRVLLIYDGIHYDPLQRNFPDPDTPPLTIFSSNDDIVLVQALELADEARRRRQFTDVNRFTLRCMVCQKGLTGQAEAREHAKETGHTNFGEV
UniProt O95365: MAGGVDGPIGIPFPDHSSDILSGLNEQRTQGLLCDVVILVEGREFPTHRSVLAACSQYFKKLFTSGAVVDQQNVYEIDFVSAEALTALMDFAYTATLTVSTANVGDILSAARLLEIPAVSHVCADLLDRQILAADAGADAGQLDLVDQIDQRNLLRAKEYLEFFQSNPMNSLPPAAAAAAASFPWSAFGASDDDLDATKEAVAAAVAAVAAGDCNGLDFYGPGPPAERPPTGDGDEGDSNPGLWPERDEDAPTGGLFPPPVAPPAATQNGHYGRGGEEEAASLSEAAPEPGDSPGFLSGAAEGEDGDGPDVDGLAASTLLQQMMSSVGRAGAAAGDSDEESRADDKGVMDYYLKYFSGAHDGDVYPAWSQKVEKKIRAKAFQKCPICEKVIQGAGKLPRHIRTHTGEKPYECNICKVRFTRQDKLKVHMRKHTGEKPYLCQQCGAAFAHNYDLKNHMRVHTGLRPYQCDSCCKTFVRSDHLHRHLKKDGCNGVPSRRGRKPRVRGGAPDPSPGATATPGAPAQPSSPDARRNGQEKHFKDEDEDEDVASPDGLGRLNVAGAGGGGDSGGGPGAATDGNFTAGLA
UniProt P07947, whole entry, looked up: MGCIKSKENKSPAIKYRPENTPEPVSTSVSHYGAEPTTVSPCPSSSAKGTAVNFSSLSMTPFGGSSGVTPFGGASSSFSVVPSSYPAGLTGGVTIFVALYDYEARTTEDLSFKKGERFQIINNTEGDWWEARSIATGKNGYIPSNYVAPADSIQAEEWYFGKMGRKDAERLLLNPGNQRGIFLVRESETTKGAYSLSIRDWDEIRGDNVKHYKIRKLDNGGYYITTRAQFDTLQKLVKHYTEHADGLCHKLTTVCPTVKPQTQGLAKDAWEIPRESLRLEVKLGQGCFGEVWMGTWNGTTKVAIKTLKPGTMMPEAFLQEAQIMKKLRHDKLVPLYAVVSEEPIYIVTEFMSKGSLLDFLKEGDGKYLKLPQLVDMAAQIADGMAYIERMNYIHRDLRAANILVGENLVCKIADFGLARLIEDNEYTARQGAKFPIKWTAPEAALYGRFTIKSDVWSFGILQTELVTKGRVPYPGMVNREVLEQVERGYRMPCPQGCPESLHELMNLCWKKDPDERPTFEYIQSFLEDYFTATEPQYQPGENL
UniProt O43298: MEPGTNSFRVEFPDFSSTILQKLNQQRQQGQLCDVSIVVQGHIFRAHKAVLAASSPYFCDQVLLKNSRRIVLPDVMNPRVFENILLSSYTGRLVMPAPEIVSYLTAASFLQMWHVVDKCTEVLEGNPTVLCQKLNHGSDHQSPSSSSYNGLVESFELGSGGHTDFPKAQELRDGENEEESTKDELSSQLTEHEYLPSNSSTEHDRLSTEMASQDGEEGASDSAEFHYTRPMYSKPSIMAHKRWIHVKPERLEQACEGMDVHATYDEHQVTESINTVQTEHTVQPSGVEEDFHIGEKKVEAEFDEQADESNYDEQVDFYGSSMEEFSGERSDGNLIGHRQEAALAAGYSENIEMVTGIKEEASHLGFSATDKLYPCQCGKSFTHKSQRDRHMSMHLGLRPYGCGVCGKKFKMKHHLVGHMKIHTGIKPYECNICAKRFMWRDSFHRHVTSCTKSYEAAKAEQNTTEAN
UniProt Q8IZN3: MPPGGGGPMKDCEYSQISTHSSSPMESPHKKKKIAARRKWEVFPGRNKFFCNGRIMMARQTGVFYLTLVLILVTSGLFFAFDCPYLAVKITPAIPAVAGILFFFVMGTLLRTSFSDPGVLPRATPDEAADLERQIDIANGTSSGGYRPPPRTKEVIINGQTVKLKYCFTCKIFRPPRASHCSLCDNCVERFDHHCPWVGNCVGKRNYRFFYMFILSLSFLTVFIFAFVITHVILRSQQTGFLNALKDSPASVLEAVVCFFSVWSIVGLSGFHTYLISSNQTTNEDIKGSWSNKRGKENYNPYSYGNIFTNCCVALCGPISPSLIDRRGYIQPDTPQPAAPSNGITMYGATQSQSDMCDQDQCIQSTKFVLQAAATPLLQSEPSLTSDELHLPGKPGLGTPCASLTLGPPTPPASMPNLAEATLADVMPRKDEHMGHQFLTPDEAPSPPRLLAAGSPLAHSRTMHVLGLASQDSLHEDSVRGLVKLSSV
UniProt Q96GY0: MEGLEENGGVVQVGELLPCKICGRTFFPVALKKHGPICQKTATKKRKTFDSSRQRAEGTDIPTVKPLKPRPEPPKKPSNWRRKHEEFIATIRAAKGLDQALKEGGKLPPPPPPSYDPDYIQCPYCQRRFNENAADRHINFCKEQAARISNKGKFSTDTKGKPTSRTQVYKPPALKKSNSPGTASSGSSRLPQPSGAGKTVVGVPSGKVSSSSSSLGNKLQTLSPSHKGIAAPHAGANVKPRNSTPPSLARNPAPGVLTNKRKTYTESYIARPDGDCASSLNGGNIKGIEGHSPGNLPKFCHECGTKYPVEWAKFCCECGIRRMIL
UniProt P51811: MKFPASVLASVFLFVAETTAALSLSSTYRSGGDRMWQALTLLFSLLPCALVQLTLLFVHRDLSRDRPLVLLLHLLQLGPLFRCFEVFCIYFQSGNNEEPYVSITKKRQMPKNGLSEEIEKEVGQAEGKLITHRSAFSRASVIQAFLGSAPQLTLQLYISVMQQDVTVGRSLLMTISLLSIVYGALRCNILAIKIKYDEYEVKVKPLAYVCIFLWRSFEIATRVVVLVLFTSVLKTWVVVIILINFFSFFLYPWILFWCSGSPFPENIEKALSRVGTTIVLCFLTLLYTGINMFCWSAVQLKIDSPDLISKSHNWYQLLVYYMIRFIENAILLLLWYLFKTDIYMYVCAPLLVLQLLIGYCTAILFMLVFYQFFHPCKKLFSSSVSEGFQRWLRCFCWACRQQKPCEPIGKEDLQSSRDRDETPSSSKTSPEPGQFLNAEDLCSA
UniProt O95070: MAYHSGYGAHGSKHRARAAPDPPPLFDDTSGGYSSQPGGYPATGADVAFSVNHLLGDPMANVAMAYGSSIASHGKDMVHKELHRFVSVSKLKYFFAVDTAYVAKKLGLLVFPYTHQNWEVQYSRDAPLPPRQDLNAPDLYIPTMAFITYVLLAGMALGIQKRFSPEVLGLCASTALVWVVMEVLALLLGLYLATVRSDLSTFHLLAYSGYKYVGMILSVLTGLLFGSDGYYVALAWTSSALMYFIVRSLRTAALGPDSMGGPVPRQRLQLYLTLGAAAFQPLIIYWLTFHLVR
UniProt Q9ULU4: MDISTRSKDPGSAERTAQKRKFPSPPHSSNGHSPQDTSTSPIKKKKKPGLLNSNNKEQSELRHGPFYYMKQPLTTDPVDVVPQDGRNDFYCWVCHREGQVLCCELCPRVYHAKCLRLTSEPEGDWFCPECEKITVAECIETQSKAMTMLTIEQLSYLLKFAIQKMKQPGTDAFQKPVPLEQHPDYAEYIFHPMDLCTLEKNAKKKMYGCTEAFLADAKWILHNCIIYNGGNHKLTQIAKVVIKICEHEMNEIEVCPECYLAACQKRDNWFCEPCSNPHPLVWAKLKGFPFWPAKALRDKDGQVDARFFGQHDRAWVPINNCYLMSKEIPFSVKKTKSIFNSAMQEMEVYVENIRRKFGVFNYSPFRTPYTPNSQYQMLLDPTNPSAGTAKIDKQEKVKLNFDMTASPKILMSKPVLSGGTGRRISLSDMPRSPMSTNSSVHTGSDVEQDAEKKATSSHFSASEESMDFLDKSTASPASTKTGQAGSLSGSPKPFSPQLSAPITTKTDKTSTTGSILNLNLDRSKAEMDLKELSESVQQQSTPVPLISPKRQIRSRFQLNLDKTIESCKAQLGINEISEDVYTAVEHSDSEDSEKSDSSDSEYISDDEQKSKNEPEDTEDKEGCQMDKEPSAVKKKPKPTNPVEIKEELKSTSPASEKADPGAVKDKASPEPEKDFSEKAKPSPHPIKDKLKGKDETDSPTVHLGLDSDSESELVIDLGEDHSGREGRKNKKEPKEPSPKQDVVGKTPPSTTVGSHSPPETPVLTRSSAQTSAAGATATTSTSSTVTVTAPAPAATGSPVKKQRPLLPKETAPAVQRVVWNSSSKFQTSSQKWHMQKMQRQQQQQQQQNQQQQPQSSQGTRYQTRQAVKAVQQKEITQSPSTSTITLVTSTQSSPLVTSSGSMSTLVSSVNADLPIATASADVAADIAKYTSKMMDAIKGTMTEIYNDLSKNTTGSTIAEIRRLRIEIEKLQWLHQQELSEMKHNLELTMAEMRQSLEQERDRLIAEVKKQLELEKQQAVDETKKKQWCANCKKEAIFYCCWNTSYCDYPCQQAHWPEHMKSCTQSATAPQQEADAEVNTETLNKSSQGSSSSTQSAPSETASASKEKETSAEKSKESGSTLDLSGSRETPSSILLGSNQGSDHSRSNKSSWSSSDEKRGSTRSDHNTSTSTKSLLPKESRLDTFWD
UniProt P52739: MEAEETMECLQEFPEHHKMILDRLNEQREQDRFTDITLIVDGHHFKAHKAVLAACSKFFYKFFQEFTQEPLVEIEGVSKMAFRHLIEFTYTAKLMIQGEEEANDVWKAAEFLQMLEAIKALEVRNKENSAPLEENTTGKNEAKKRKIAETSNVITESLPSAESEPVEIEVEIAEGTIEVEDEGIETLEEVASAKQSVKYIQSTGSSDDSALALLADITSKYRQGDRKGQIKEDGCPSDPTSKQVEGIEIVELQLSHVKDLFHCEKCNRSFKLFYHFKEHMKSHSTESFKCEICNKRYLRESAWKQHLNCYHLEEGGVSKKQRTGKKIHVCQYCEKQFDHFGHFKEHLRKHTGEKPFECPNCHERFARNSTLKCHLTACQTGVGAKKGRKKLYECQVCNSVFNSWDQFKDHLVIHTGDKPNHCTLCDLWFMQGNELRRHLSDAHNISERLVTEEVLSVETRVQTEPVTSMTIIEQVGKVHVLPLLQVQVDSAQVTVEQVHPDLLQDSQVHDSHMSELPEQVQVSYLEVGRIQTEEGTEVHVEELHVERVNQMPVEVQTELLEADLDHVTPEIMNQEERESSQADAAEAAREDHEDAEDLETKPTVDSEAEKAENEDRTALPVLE
UniProt Q9UGR2: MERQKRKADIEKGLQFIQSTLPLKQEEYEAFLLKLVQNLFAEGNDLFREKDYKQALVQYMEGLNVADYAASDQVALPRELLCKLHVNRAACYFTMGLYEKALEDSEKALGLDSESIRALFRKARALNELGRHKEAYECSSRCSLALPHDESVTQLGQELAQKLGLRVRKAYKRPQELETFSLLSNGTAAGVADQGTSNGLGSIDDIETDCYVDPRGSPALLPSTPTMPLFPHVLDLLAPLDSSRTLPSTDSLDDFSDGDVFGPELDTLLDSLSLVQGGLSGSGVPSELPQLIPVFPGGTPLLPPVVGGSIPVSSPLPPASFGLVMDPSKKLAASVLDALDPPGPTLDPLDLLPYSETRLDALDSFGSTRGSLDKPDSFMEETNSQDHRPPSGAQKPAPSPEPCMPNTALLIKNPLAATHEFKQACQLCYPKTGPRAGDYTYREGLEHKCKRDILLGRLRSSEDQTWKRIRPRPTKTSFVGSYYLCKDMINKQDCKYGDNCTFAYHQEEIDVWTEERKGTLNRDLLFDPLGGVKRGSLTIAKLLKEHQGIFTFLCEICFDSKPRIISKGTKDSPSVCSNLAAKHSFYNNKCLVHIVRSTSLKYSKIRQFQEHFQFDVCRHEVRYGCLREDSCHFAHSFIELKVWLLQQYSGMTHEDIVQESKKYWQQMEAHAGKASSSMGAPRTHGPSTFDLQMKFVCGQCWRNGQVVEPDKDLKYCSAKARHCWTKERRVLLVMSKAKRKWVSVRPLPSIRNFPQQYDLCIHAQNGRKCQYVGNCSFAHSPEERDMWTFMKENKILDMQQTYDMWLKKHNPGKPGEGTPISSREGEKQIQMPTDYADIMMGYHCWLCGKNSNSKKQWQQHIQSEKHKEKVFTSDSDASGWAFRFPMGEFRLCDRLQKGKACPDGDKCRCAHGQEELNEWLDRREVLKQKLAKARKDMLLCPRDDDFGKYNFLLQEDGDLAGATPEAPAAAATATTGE
UniProt P63104: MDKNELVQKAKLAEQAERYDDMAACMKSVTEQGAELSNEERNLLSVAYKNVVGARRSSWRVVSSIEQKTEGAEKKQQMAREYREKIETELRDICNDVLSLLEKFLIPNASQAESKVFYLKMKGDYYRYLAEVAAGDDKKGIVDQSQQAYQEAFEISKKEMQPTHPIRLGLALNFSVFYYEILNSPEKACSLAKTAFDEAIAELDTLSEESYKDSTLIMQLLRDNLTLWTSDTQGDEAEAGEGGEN

How the values were obtained:
Assay in all cases: log2 fold change, soluble protein after heating vs DMSO (PISA); higher = thermal stabilisation; K562 cells, 10 uM, 30 min; active = over 0.2 and 3.5 SD of the protein, either way, in both replicates (recomputed)
[1] = compound: COC1=CC=C(C=C1)CN2C=CC3=C2C=C(C=C3)C(=O)NO
Outline: (§1)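 K562 cells at 2×10^6 cells/mL were treated for 30 min with 10 μM compound, and aliquots were heated for 3 min over 48°C-58°C before pooling. Extraction used PBS with 0.5% NP-40 at 4°C, and soluble protein was the supernatant after 21,000xg for 90 min, measured by TMTpro 16plex LC-MS/MS with channel sums equalised. Thermal stability values, relative to control samples and from duplicates, are log2 fold changes.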

[2] = compound: CON(C)C(=O)N1N=C(c2cc(F)ccc2F)S[C@@]1(CCCN)c1ccccc1 [filanesib]
Outline: as §1

[3] = compound: CO[C@H]1C[C@@H]2CC[C@@H](C)[C@@](O)(O2)C(=O)C(=O)N2CCCC[C@H]2C(=O)O[C@H]([C@H](C)C[C@@H]2CC[C@H](n3cnnn3)[C@H](OC)C2)CC(=O)[C@H](C)/C=C(\C)[C@@H](O)[C@@H](OC)C(=O)[C@H](C)C[C@H](C)/C=C/C=C/C=C/1C [zotarolimus]
Outline: as §1

[4] = compound: COc1cc(C(=O)O)ccc1NC(=O)[C@@H]1N[C@@H](CC(C)(C)C)[C@](C#N)(c2ccc(Cl)cc2F)[C@H]1c1cccc(Cl)c1F [idasanutlin]
Outline: as §1

[5] = compound: COc1cc(Nc2ncc3c(n2)-c2ccc(Cl)cc2C(c2c(F)cccc2OC)=NC3)ccc1C(=O)O [alisertib]
Outline: as §1

[6] = compound: COc1cc2nc(-c3cc(F)ccc3O)nc(N[C@@H]3CNC[C@H]3C(C)(C)O)c2cc1OC
Outline: as §1

[7] = compound: COc1cc2ncnc(Nc3ccc(F)c(Cl)c3)c2cc1OCCCN1CCOCC1 [gefitinib]
Outline: as §1

[8] = compound: COc1cccc2cc(-c3nc([C@H]4CC[C@H](C(=O)O)CC4)n4ncnc(N)c34)[nH]c12
Outline: as §1

[9] = compound: CS(=O)(=O)CCNCc1ccc(-c2ccc3ncnc(Nc4ccc(OCc5cccc(F)c5)c(Cl)c4)c3c2)o1 [lapatinib]
Outline: as §1

[10] = compound: CS(=O)(=O)N1CCN(Cc2cc3nc(-c4cccc5[nH]ncc45)nc(N4CCOCC4)c3s2)CC1 [pictilisib]
Outline: as §1

[11] = compound: CS(=O)(=O)c1ccc(-c2cnc(N)c(C(=O)Nc3ccccc3)n2)cc1
Outline: as §1

[12] = compound: C[C@@H](Oc1cc(-c2cnn(C3CCNCC3)c2)cnc1N)c1c(Cl)ccc(F)c1Cl [crizotinib]
Outline: as §1

[13] = compound: C[C@@H]1COCCN1C2=NC(=NC(=C2)C3(CC3)S(=O)(=O)C)C4=C5C=CNC5=CC=C4
Outline: as §1

[14] = compound: C[C@H](C1=CC=C(C=C1)C(=O)NC2=C3C=CNC3=NC=C2)N
Outline: as §1

[15] = compound: Cc1cc(Nc2cc(CN3CCOCC3)c3nc(C)c(Cc4ccc(Cl)cc4F)n3n2)n[nH]1 [gandotinib]
Outline: as §1

[16] = compound: Cc1cc(SCc2sc(-c3ccc(C(F)(F)F)cc3)nc2C)ccc1OCC(=O)O
Outline: as §1

[17] = compound: Cc1ccc(-n2nc(C(C)(C)C)cc2NC(=O)Nc2ccc(OCCN3CCOCC3)c3ccccc23)cc1 [doramapimod]
Outline: as §1

[18] = compound: Cc1ccc(C(=O)N(CCCN)[C@@H](c2nc3cc(Cl)ccc3c(=O)n2Cc2ccccc2)C(C)C)cc1 [ispinesib]
Outline: as §1

[19] = compound: C[C@H](Nc1ncnc2nc[nH]c12)c1cc2cccc(Cl)c2c(=O)n1-c1ccccc1 [duvelisib]
Outline: as §1

[20] = compound: Cc1cc(Nc2cc(N3CCN(C)CC3)nc(Sc3ccc(NC(=O)C4CC4)cc3)n2)n[nH]1 [tozasertib]
Outline: as §1

Target	log2 fold change [1]	log2 fold change [2]	log2 fold change [3]	log2 fold change [4]	log2 fold change [5]	log2 fold change [6]	log2 fold change [7]	log2 fold change [8]	log2 fold change [9]	log2 fold change [10]	log2 fold change [11]	log2 fold change [12]	log2 fold change [13]	log2 fold change [14]	log2 fold change [15]	log2 fold change [16]	log2 fold change [17]	log2 fold change [18]	log2 fold change [19]	log2 fold change [20]
YOD1 (UniProt Q5VVQ6)	inactive: 0.037	inactive: -0.067	inactive: 0.05	inactive: -0.038	inactive: 0.19	inactive: 0.018	inactive: 0.006	inactive: 0.011	inactive: 0.01	inactive: -0.001	inactive: 0.117	inactive: -0.052	inactive: 0.055	inactive: -0.04	inactive: -0.149	inactive: 0.061	inactive: 0	inactive: -0.042	–	–
ZBTB7A (UniProt O95365)	inactive: 0.062	inactive: 0.164	inactive: 0.178	inactive: -0.111	–	inactive: -0.066	inactive: 0.006	–	inactive: 0.121	–	inactive: -0.091	inactive: -0.046	inactive: 0.515	inactive: -0.092	–	inactive: -0.127	inactive: 0.221	inactive: 0.033	inactive: 0.018	inactive: 0.54
YES1 (UniProt P07947)	inactive: 0.072	–	inactive: 0.053	inactive: 0.041	inactive: -0.211	inactive: -0.052	inactive: -0.045	inactive: -0.256	inactive: 0.057	inactive: 0.093	–	active: -0.576	inactive: -0.035	inactive: 0	inactive: -0.447	inactive: 0.06	inactive: 0.006	inactive: -0.097	–	–
ZFHX4 isoform 5 (UniProt Q86UP3)	inactive: 0.379	inactive: 0.057	–	–	–	–	inactive: 0.008	–	–	–	inactive: -0.032	inactive: -0.112	–	–	–	–	inactive: 0.059	–	–	inactive: 0.038
ZBTB43 (UniProt O43298)	inactive: 0.094	inactive: -0.024	inactive: -0.036	inactive: 0.002	–	–	inactive: 0.025	–	–	inactive: 0.027	inactive: 0.021	inactive: -0.077	inactive: -0.088	inactive: -0.013	inactive: 0.043	inactive: 0.041	inactive: -0.029	inactive: 0.164	–	–
ZFYVE28 (UniProt Q9HCC9)	inactive: 0.131	–	–	–	–	inactive: -0.001	–	–	inactive: 0.095	–	–	inactive: -0.299	–	–	–	–	inactive: -0.225	–	–	–
ZDHHC14 (UniProt Q8IZN3)	inactive: 0	inactive: 0.005	inactive: -0.065	inactive: 0.032	inactive: 0.038	inactive: 0.072	inactive: 0.033	inactive: 0.136	inactive: 0.004	–	inactive: -0.001	inactive: -0.029	inactive: 0.016	inactive: -0.136	–	inactive: -0.043	inactive: -0.004	inactive: -0.005	inactive: 0.199	inactive: 0.025
ZC2HC1A (UniProt Q96GY0)	inactive: -0.144	–	inactive: -0.02	inactive: 0.014	inactive: -0.011	inactive: -0.057	inactive: -0.042	inactive: -0.035	inactive: 0.001	inactive: 0.24	–	inactive: -0.045	inactive: -0.138	inactive: 0.134	inactive: 0.079	inactive: -0.153	inactive: 0.161	inactive: 0.003	inactive: 0.098	inactive: -0.065
XK (UniProt P51811)	inactive: 0.024	inactive: 0.13	inactive: -0.126	inactive: 0.03	inactive: 0.116	inactive: 0.117	inactive: 0.036	inactive: -0.148	inactive: -0.046	inactive: -0.16	inactive: -0.067	inactive: 0.158	–	inactive: -0.032	inactive: 0.149	inactive: -0.137	inactive: 0.034	–	inactive: 0.067	–
YTHDC2 (UniProt Q9H6S0)	inactive: -0.166	–	–	inactive: 0.372	inactive: -0.107	–	–	inactive: -0.279	–	inactive: 0.119	–	inactive: 0.015	inactive: -0.241	–	inactive: 0.301	–	inactive: 0.299	–	–	–
YIF1A (UniProt O95070)	inactive: -0.076	–	inactive: -0.056	inactive: 0.124	inactive: -0.012	inactive: 0.057	inactive: 0.095	inactive: 0.003	inactive: -0.12	inactive: -0.055	–	inactive: 0.183	–	inactive: -0.037	inactive: 0.08	inactive: -0.045	inactive: 0.039	inactive: 0.089	inactive: 0.069	inactive: 0.075
ZMYND8 isoform 19 (UniProt Q9ULU4)	inactive: -0.138	–	inactive: 0.02	–	–	inactive: -0.155	–	–	inactive: 0.071	–	–	inactive: -0.277	inactive: 0.138	inactive: 0.015	–	inactive: 0.114	inactive: 0.112	–	inactive: -0.122	–
XPC (UniProt Q01831)	inactive: -0.107	–	inactive: 0.051	inactive: -0.017	–	inactive: -0.226	–	–	inactive: -0.196	–	–	inactive: -0.041	inactive: -0.27	inactive: 0.403	–	–	inactive: -0.075	inactive: -0.441	–	–
ZNF131 (UniProt P52739)	inactive: -0.05	inactive: 0.108	–	–	–	–	–	–	–	–	inactive: 0.069	inactive: 0.032	inactive: -0.107	–	–	–	inactive: 0.273	inactive: 0.049	–	–
ZC3H7B (UniProt Q9UGR2)	inactive: -0.119	inactive: 0.727	inactive: 0.087	–	inactive: -0.273	–	–	inactive: -0.302	–	inactive: -0.163	inactive: -0.061	inactive: -0.188	–	inactive: 0.559	inactive: -0.024	inactive: -0.208	inactive: 0.026	inactive: -0.276	inactive: -0.366	inactive: 0.388
ZEB1 isoform 2 (UniProt P37275)	inactive: -0.069	inactive: -0.24	inactive: -0.004	inactive: 0.018	inactive: -0.088	inactive: -0.03	inactive: 0.026	inactive: -0.022	inactive: -0.015	inactive: -0.159	inactive: -0.058	inactive: -0.027	–	inactive: -0.044	inactive: -0.121	inactive: -0.065	inactive: -0.046	–	inactive: -0.005	inactive: -0.234
YWHAZ (UniProt P63104)	inactive: -0.002	inactive: -0.027	inactive: 0.107	inactive: -0.026	inactive: -0.028	inactive: -0.163	inactive: 0.005	inactive: -0.052	inactive: 0.197	inactive: -0.037	inactive: -0.017	inactive: 0.008	inactive: 0.011	inactive: -0.178	inactive: 0.084	inactive: 0.012	inactive: 0.013	inactive: 0.149	–	–
YWHAZ (UniProt E7ESK7)	inactive: 0.006	–	inactive: -0.072	inactive: -0.061	inactive: -0.041	inactive: 0.028	–	inactive: 0.187	inactive: -0.051	–	–	inactive: 0.081	inactive: 0.165	inactive: 0.179	–	inactive: -0.02	inactive: 0	inactive: -0.11	–	–

Complete entries as entered above. Order of values: log2 fold change [1] | log2 fold change [2] | log2 fold change [3] | log2 fold change [4] | log2 fold change [5] | log2 fold change [6] | log2 fold change [7] | log2 fold change [8] | log2 fold change [9] | log2 fold change [10] | log2 fold change [11] | log2 fold change [12] | log2 fold change [13] | log2 fold change [14] | log2 fold change [15] | log2 fold change [16] | log2 fold change [17] | log2 fold change [18] | log2 fold change [19] | log2 fold change [20]
ZFYVE28 (UniProt Q9HCC9) is listed as inactive: 0.131 | – | – | – | – | inactive: -0.001 | – | – | inactive: 0.095 | – | – | inactive: -0.299 | – | – | – | – | inactive: -0.225 | – | – | –
ZC3H7B (UniProt Q9UGR2) is listed as inactive: -0.119 | inactive: 0.727 | inactive: 0.087 | – | inactive: -0.273 | – | – | inactive: -0.302 | – | inactive: -0.163 | inactive: -0.061 | inactive: -0.188 | – | inactive: 0.559 | inactive: -0.024 | inactive: -0.208 | inactive: 0.026 | inactive: -0.276 | inactive: -0.366 | inactive: 0.388
